The DeepSol protein solubility set

Test: soluble on expression in E. coli; label from the status in PepcDB or PDB records

Sequence | soluble on expression in E. coli
GPGSMSLRVVDVCGRATGRLILVGDIHGCLDQLRELLVKVHFANAVVRRCPTLLTTSSSSASSLSRAGPLPSRGGAPSMCIPAVLKPGPLGESASPSAEDGAVEDVCVFVGDLVNKGPDSYGVVRFLRDIGAIGVLGNHDAALLQLSEKLRADVPLTDKEASSSLYPLALHCPDDVFAFMMSVPHILCFHAYRLIVVHAGIDPSIPLAAQSVEAVTRMRNLVKAKKYWRQPTNEATGQPAHVALSVSAAFATLERPKLGANWGVKWSELARKLHGSVAGEEASDRSSDRSRGRSRSGGSGTGDGADDSGKKKPKKADEDVSKWRRRIHRDYTDFTVVYGHDAKRRLQVYPYAYGLDSGCVYGGELTGLVWPSTLVSVPGWTDPSPPRKSKV | soluble
IDRQSLFVNVGERTNITGSARFARLIREDNYTEALEVALQQVEAGAQVIDINMDEGMLDSKKAMVTFLNLIAGEPDISRVPIMIDSSKWEVIEAGLKCIQGKGIVNSISMKEGVEQFIHHARLCKRYGAAVVVMAFDEQGQADTEARKKEICKRSYDILVNEVGFPPEDIIFDPNIFAIATGIEEHNNYAVDFINACAYIRDELPHALTSGGVSNVSFSFRGNNPVREAIHSVFLLHAIRNGLSMGIVNAGQLEIYDQIPAELRDCVEDVVLNRNPEGTEALLAIADKYKGDG | not soluble
MAHHHHHHMNAAAIEVINKLKKEDESNNKCFDCGVPNPDWVSVNHGVFLCINCSGVHRSLGVHISIVRSIKMDIFTDEQLKYLDKGGNKKFQTYLENYGINNFIPERKYRTKAAEHYRKIMKSIVHNSDPPSPLSLDEGKDLINFGQNENMNANEINKNGKNNLYADDQQNFIPSLNTAEILDNVSATFSNFINRAQTMTTNTINNLNKNDLIESTKDTLMNSSSWITEKTKKIAENVSDNPWWEKGQSKIKDVTQNATGWISSISSTVSRTNSNFFFANSEFGATGGPTGTGSVSTNASAEGGQGAAAPDHLASTSSSANADGVSKPSAGENNPAFSRTDTSKSLNKN | soluble
MAHHHHHHMPKKSMHATRNDLPSNTKTTMIALLNENLAATIDLALITKQAHWNLKGPQFIAVHEMLDGFRAELDDHVDTIAERAVQIGGTAYGTTQVVVKESRLKPYPTDIYAVHDHLVALIERYGDVANLVRKSIKDADDAGDDDTADIFTAASRSLDKALWFLEAHVQESN | soluble
MAITTAASRLGTEPFSEVRRVELRPNSSREQVEAVIKAVYRQVLGNDYILASDRLISAESLLRDRHLTVREFVRSVAKSELYKAKFFHNSFQTRLIELNYKHLLGRAPYDESEVTYHLDLYINEGYDAEIDSYIDSQEYQNSFGENVVPYYRGFDFQAGQNAAGFTRMFRLYRGYANSDTAQVEGSKSRLARELASNKSSSVVGPSGSNNNWSFRASADNAPKQNLGNAVGQSDRVYRIEVAGIRNPGYPKVRRSSTVFIVPYERLLDKMQQIHRQGGKIVSVIST | not soluble
MAQKGVLGPGQLGAVAILLYLGLLRSGTGAEGAEAPCGVAPQARITGGSSAVAGQWPWQVSITYEGVHVCGGSLVSEQWVLSAAHCFPSEHHKEAYEVKLGAHQLDSYSEDAKVSTLKDIIPHPSYLQEGSQGDIALLQLSRPITFSRYIRPICLPAANASFPNGLHCTVTGWGHVAPSVSLLTPKPLQQLEVPLISRETCNCLYNIDAKPEEPHFVQEDMVCAGYVEGGKDACQGDSGGPLSCPVEGLWYLTGIVSWGDACGARNRPGVYTLASSYASWIQSKVTELQPRVVPQTQESQPDSNLCGSHLAFSSAPAQGLLRPILFLPLGLALGLLSPWLSEH | soluble
MDSSTHSTADFGRLVWISDEAEGFVAARITDIAENGFTLATEKTSETVNRRYEDTWACEEDPQKSVEDNCALVHLNEATLLNNCRLRYANGKIYTYVANILISINPYQLIDGLYSPETIKEYRGKSLGQMEPHIFAIADKAYREMRRIKTSQSIIVSGESGAGKTESQKAVLKYLCENWGTDAGPIQQRLLETNPILEAFGNAKTLRNNNSSRFGKFVQIHFSDNGTVAGGFVSHYLLETSRVCRQAAGERNYHIFYQLIAGSSPDLYKKLRLAPASSFNYLKHGATLFFVNSKSSLKTDASRFSETNSSVSDSIISDIDDFAKLERALALSGVSDDEKMFIWSTVAGILHLGNIEFEENASDSRGGCMITSGTENSLMAAAELLGLEPEEMKLGLCARIMQTTKGGVKGTLIRVPLKAHEASAGRDALAKAIYSKLFDWLVAQINKSIPFEKSTGYIGVLDVAGFEYFAVNSFEQFCINFCNEKLQHFFNERILKQEQEMYEAEGLNIQKIEFTDNLDCIELFEKKASGLFDLLDEEAKLPRATFQHFTQRAHESNKNHFRLDAPRKSKVKSHREMRDDEGLLIRHYAGTVCYETRYFVEKNNDQLHNSLEMLIEQSSFPLVVSLFTSEATGAVKTGGRLKAVSVGAKFKSQLSSLLDKLNNTGTHFVRCVKPNSQMKAWHFDGSAILGQLQCAGMASVLRLMQEGFPSRTSFADLYAMYEKNLPPSLARLDPRLFSKCLFHALGLDQNDFQFGNTKVFFTAGKFAEFDQMMKQDPETVMELISKVTDWLVKARWRKVQYGAWSVIKLKNKILYRAEKIKKIQAWIRGYLVRKRFHKRLAIFRKACALLENSREMTDILARMNESSQDKWREAADSTTGELDELVKTIKNDDLNTEIDRAVKCYEDCVKRVDSIIADLKLQLENDELAEVERARKEAEDKERREAEEKAAAEQEKILRRKMEEEREKAQKEYELQLEMQKQKLAAEAEEEVKRRNKEERDRLDAAVSSRLASSDGVALVAQEASAAPPKQQSKYDLGNWKYADLRDAINTSNDMELLVACKEEFHRRLRIYNEWKSKNSANRDVPPTRAPLTVYNQQKPSSSSMMVSRVQAAPHLNPALTQQRYFKVSFATDNKKKNGGSQSGMWYAHFNGQYIRRQLTIRPSQKPQLLVAGKDDLQMCELPLEQTGLLRKKGAEISSNDFETMWYHYGGKPIQEWTP | not soluble
MEGHKAEEEVLDVLRLNVGGCIYTARRESLCRFKDSMLASMFSGRFPLKTDESGACVIDRDGRLFKYLLDYLHGEVQIPTDEQTRIALQEEADYFGIPYPYSLSDHLANEMETYSLRSNIELKKALTDFCDSYGLVCNKPTVWVLHYLNTSGASCESRIIGVYATKTDGTDAIEKQLGGRIHSKGIFKREAGNNVQYIWSYYSVAELKKMMDAFDAWEGKGVSY | not soluble
MGSDKIHHHHHHMSSSPLLQIDDLSIAFRKGDQEQRVVDQLSLAVNAGETLALVGESGSGKSVTALSVLRLLPSPPVVYPQGDIRFAGQSLLHADEKTLRQIRGNRIAMIFQEPMVSLNPLQSIEKQLIEVLSLHCGMRTEAARSEVISCLDRVGIRQAKSRLNDFPHQLSGGERQRVMIAMALLTQPDLLIADEPTTALDVTVQAQILKLLNELKREMGMSLLFITHDLNIVRQLADNVSVMKSGKAVEHNSCQQLFSAPQHPYTRQLLDAEPSGEPLPVEDDGGPLLRVEHLHVSFPIKRGLLRRTVDEKQVVNNISFTLRRGESLGLVGESGSGKSTTGLALLRLIQSRGDIWFDGQPLQGLTRKQMLPFRHRIQVVFQDPNSALNPRLNVEQIIAEGLIVHHKLSKEAQEQRVVAVMQEVGLDPTTRYRYPSEFSGGQRQRIAIARALILQPELLILDEPTSSLDRTVQAQILALLKSLQEKHKIAYLFISHDLQVIRSLCHQVIVLRQGEVVEQGECKQVFTHPAEHYTRELLQFSSGMTETQSA | not soluble
MLSARSFLSSARTIARSSLMSARSLSDKPKGHVIGIDLGTTNSCVSIMEGKTPKVIENAEGVRTTPSTVAFTADGERLVGAPAKRQAVTNSANTLFATKRLIGRRYEDPEVQKDLKVVPYKIVKASNGDAWVEAQGKVYSPSQVGAFVLMKMKETAESYLGTTVNNAVVTVPAYFNDSQRQATKDAGQISGLNVLRVINEPTAAALAYGLDKDAGDKIIAVYDLGGGTFDVSILEIQKGVFEVKSTNGDTFLGGEDFDHALVHHLVGEFKKEQGVDLTKDPQAMQRLREAAEKAKCELSSTTQTDINLPYITMDQSGPKHLNLKLTRAKFEQIVGDLIKRTIEPCRKALHDAEVKSSQIADVLLVGGMSRMPKVQATVQEIFGKVPSKAVNPDEAVAMGAAIQGAVLAGDVTDVLLLDVTPLSLGIETLGGIMTKLITRNTTIPTKKSQVFSTAADGQTQVQIKVFQGEREMATSNKLLGQFSLVGIPPAPRGVPQVEVTFDIDANGIVNVSARDRGTGKEQQIVIQSSGGLSKDQIENMIKEAEKNAAEDAKRKELVEVINQAEGIIHDTEAKMTEFADQLPKDECEALRTKIADTKKILDNKDNETPEAIKEACNTLQQQSLKLFEAAYKNMAAKNSGGDAQEAKTAEEPKKEQN | not soluble
MNLTPAEIVRELSKHIVGQEAAKRAVAVALRNRYRRKKLPPEIAREVTPKNILMIGPTGVGKTEIARRLARLAGAPFVKVEATKFTEVGYVGRDVDSIVRDLAEASYQLVLEEMKKKVEEKALALAEEELATLLRTSVAEVRSGRLDGHFVEVQVEEEVALPFMGVLGGEAFGGMGEMLKGLLPRRPVRRRMTVREAREVLKNQHAERLIDKEELKEEARRRAQEEGIVFIDEIDKVARREGTVGPDVSGEGVQRDLLPIVEGTVVSTRIGPISTEHVLFIAAGAFHVAKPSDLIPELQGRFPIRVELSPLGPEEFYRILKEPENSLIRQYTELLKADGTELVFEDEALWAIAQAAHRANQELEDIGARRLATVLEKVLEEVSFQTDLGRVEITRAYVEKRLEAVFASPDLTRFVL | soluble
MNRKASVSKELNAKHSKILEALLKHPDNRECADCRSKAPRWASVNLGIFICMQCSGIHRSLGVHISQVRSITLDTWLPDQVAFMKSTGNAKGNEYWESELPQHFERSSSDTFIRAKY | not soluble
MPLLSQHSRGGCSSESSRVALHCCSNLGPGLGGAPDVPHPPLKIPGGRGNSQRDHSLSASILYSDERLNVTEEPTSNDKTRVLSIQCTLTEAKQVTWRAVWNGGGLYIELPAGPLPEGSKDSFAALLEFAEEQLRADHVFICFPKNREDRAALLRTFSFLGFEIVRPGHPLVPKRPDACFMVYTLEREDPGEED | soluble
MPVSPSSVSVLPPTSLEQILRIRAERNQRTPKCARCRNHGTTSALKGHKRYCQWKDCMCAKCTLIAERQRVMAAQVALRRQQSQEERDARDLEVLLGSAGNANDLLDILRLDAGEHHGKNHASPTTNNNNNTEEKYEDSQGQRSSPSSPTGSETVVSTSSPPELSSESTPNTSGSVIPTSPVFKPNGYSSMPMFNPVYGRPFMRFPMFSVMPHFFGTPSMSDFASAASLAAPPAFFSAQPTIATSSPSTIFPQTAPLDYSHRLMKNEEAEEEYRENDKTF | not soluble
MRSDQIKKGLKQAPARAMLRAVGVGDEDFGRPFVGVVNTFTDGMPCNFHLRELAQHLKAGLREAGLFPFEFGAPAISDGISMGTPGMRASLVSREVIADSVELIAQGYLYDGMVGLSACDKTIPGTAMGVIRSGVPGMVLYGGTIAPGEWQGRKLTIVEVFEAVGQRAAGKISEEELLEIERRAIPGPGACGGQYTANTMAMALEALGLSPVGYNAIPAVHPEKERATKEAGKILAWAIAHDWKPKDFLTRKSFLNAVAAVAATGGSTNAVLHLLALAKEAGVELSLDDFDQISRKTPVIADLRPWGTYTAWELYEAGGTALVFKRLLEAGLLFGEEKTLTGRTLAEEVERAYREQEGQKVVFPVEKALKPHGGLVVLKGNLAPQGAVLKLAGTERTSFEGPARVFDSEEAAMEKVLKGEIRPGDVVVIRYVGPKGAPGMPEMLSVTSAIVGEGLGPEVALLTDGRFSGGTRGLMIGHIAPEAFVGGPIALLEEGDRIRIDVEGRRLEVLLPEEELERRRARWRPRPPAFTHGLFARYAALVRQADEGAVLEDPL | soluble
MSGHPGSWEMNSVAFEDVAVNFTQEEWALLDPSQKNLYRDVMQETFRNLASIGNKGEDQSIEDQYKNSSRNLSSFQIHQRNHTGEKPYECMECGKALGFSRSLNRHKRIHTGEKRYECKQCGKAFSRSSHLRDHERTHTGEKPYECKHCGKAFRYSNCLHYHERTHTGEKPYVCMECGKAFSCLSSLQGHIKAHAGEEPYPCKQCGKAFRYASSLQKHEKTHIAQKPYVCNNCGKGFRCSSSLRDHERTHTGEKPYECQKCGKAFSRASTLWKHKKTHTGEKPYKCKKM | soluble
